Data from PubChem BioAssay AID651814 (National Center for Advancing Translational Sciences (NCATS), 2012).
The whole screen tested about 2,100 compounds, of which about 590 (28%) were called active. The inconclusive results got no clear call from the source; some entries with a clear call stand among them for comparison. Calls follow the shape of the dose curve; as a rule, active = well fitted inhibition curve with a large enough effect; inconclusive = small, poorly fitted or top-dose-only effect; inactive = flat fitted curve, though single readings scatter. A potency beside an inconclusive call is a rough fit, not a confirmed value.
Also: nearly all actives have a fitted effect of over 70% in size.
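For max response in this document: % of control where 0% means no effect; active compounds raise eYFP fluorescence by blocking Vif-driven A3F loss.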
Potency is read from the fitted curve at half-maximal effect.

Amino acid sequences for entries named in this document (tags omitted). A change or cut given only in a name is not applied to a line headed by its entry.
UniProt Q8IUX4: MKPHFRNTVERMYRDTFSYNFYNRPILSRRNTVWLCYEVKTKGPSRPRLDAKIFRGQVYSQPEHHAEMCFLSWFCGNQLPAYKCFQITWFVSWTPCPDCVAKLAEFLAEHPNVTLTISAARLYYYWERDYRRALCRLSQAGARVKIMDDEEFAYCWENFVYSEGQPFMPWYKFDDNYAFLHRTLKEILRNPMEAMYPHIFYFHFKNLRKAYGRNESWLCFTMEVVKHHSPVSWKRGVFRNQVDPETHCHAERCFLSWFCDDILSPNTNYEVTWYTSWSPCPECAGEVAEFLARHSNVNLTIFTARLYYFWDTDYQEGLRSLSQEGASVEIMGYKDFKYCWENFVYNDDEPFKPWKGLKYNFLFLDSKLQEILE

Each compound was assayed against DNA dC->dU-editing enzyme APOBEC-3F (Homo sapiens) (UniProt Q8IUX4) (assay: qHTS for inhibitors of Vif-A3F interactions: Cherry picks). Settings: HeLa A3F-eYFP + Vif (tagged APOBEC3F with the HIV-1 protein that degrades it), eYFP fluorescence, 24 h.
Procedure, shortened: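 HeLa cells stably expressing A3F-eYFP plus Vif, cultured overnight, then exposed to compounds at several concentrations for 24 h at 37 deg C. Reduced Vif-driven degradation read as rising eYFP fluorescence (488 nm ex/500-530 nm em) by laser-scanning cytometry; MG132 as positive control.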
For `Cc1ccc(C)c2nc3sc(C(=O)N4CCOCC4)c(N)c3cc12`, the Potency was active: 12.5 µM.
With `COc1cc2c3nnc(-c4ccccc4)c-3cn(Cc3ccccc3F)c2cc1OC` the Potency was inconclusive: 25.9 µM [inhibitor, single point].
In the case of `Cc1ccc(/C=N/NC(=O)c2cc(-c3ccccc3)nc3ccccc23)o1`, the Potency is reported as inconclusive: 15.8 µM [inhibitor, partial curve].
For `CC(=O)Nc1ccc2c(c1)Cc1ccc(Cl)cc1-2`, the max response was inactive: -9.88%.
In the case of `COc1ccc(Cl)cc1NC(=O)CSc1nc2c([nH]c3ccccc32)c(=O)n1-c1ccccc1`, the Potency is reported as inconclusive: 18.4 µM [inhibitor, single point].
For `CC1(C(=O)NCc2ccco2)Cc2c(-c3ccc(C(N)=O)cc3)ccnc2O1` (configuration not stated), the Potency was inconclusive: 9.94 µM [inhibitor, partial curve].
With `CN(C)c1ccc(/C=C/c2ccncc2)cc1` the max response was inactive: -29.1%.
With `Cc1ccc(CNC(=O)c2cccc3c2C(=O)c2ccc(N4CCCCC4)cc2S3(=O)=O)cc1` the Potency was inconclusive: 29.1 µM [inhibitor, single point].
For `COc1cc(/C=C2\SC(=Nc3ccccc3)NC2=O)cc(Cl)c1O`, the Potency was inconclusive: 4.61 µM [inhibitor, single point].
In the case of `COC(=O)c1cc(C(=O)N2CCN(c3ccccc3OC)CC2)cc([N+](=O)[O-])c1`, the Potency is reported as inconclusive: 1.12 µM [inhibitor, full curve].
In the case of `O=C(Nc1cc(C(F)(F)F)ccc1-n1cncn1)c1ccc([N+](=O)[O-])o1`, the Potency is reported as inconclusive: 20.6 µM [inhibitor, single point].
For `O=C(NNc1ncc(C(F)(F)F)cc1Cl)c1c(Cl)cccc1Cl`, the Potency was inconclusive: 2.23 µM [inhibitor, full curve].
`CCn1c(=O)c2cc(C(=O)NCCCOC)sc2c2ccccc21` was tested, and the Potency was inconclusive: 15.8 µM [inhibitor, partial curve].
`Cc1cc(/C=C2\SC(=S)N(C)C2=O)c(C)n1-c1ccccc1O` was tested, and the Potency was active: 20.6 µM.
With `CC(C)(C)c1ccc(Cn2c(=O)cnc3ccccc32)cc1` the max response was inactive: -25.6%.
For `CCC1CCCCN1CCCNC(=O)c1ccc2c(c1)N(Cc1ccccc1F)C(=O)c1ccccc1S2(=O)=O` (configuration not stated), the Potency was inconclusive: 2.91 µM [inhibitor, full curve].
In the case of `CC(=O)Nc1ccc(/C=C/C(=O)c2ccc(-n3nncc3-c3ccccc3)cc2)cc1`, the Potency is reported as inconclusive: 20.6 µM [inhibitor, single point].
In the case of `O=C(NCCC1=CCCCC1)C1CCC(CNc2nc(=S)[nH]c3ccccc23)CC1` (configuration not stated), the Potency is reported as inconclusive: 16.4 µM [inhibitor, single point].
For `Cc1cc(SCC(=O)c2cccs2)nc2ccccc12`, the Potency was inconclusive: 29.1 µM [inhibitor, single point].
For `O=S(=O)(Nc1nc2ccccc2nc1N1CCc2ccccc2C1)c1ccc(Br)cc1`, the max response was inactive: -17%.
In the case of `COc1ccc(OC)c(NC(=O)Cn2cnc3onc(-c4ccc(Cl)cc4)c3c2=O)c1`, the max response is reported as inactive: -18%.
`CC1(C)Cc2nc3sc4c(SCC(=O)NCc5ccco5)ncnc4c3cc2CO1` was tested, and the Potency was inconclusive: 1.58 µM [inhibitor, full curve, poor fit].
`N#CC1CC(c2ccccc2)Nc2cc(Cl)ccc2N1` (configuration not stated) was tested, and the max response was inactive: -26.3%.
With `Cn1c(-c2ccccc2)cc2c3no[n+]([O-])c3ccc21` the Potency was inconclusive: 3.96 µM [inhibitor, single point].
With `Cc1c(C(=O)N2CCOCC2)[nH]c2c1C(=O)CC(c1ccccc1Cl)C2` (configuration not stated) the Potency was inconclusive: 3.53 µM [inhibitor, full curve, poor fit].
`N#C/C(=C/c1ccc2c(c1)OCO2)C(=O)Nc1ccc(O)cc1` was tested, and the max response was inactive: -28.5%.
`Cc1noc(C)c1COc1cccc(C(=O)OCC(=O)N2CC(=O)Nc3ccccc32)c1` was tested, and the Potency was inconclusive: 2.8 µM [inhibitor, full curve].
`COc1ccc(C)c(Cn2c(-c3nonc3N)nc3ccccc32)c1` was tested, and the Potency was inconclusive: 1.98 µM [inhibitor, full curve].
In the case of `C[C@H]1CN([C@@H](C)CO)C(=O)Cc2cc(NC(=O)CCC(F)(F)F)ccc2O[C@H]1CN(C)S(=O)(=O)c1ccc(F)cc1`, the Potency is reported as inconclusive: 7.04 µM [inhibitor, partial curve].
`CCOc1ccccc1C1CC(=O)NC2=C1C(=O)CCC2` (configuration not stated) was tested, and the Potency was inconclusive: 11.2 µM [inhibitor, partial curve].
For `CCOC(=O)CSC1=C(C#N)C(c2ccc(C)s2)CC(=O)N1` (configuration not stated), the Potency was inconclusive: 1.98 µM [inhibitor, full curve].
In the case of `Cc1ccc(C(=O)NC(=C(Cl)Cl)S(=O)(=O)c2ccccc2)cc1`, the Potency is reported as inconclusive: 14 µM [inhibitor, single point].
`CC(/C=N/NC(=O)c1cccc(F)c1)=C\c1ccccc1` was tested, and the Potency was inconclusive: 8.86 µM [inhibitor, partial curve].
In the case of `CCC(C)Sc1cc(-c2nc3ccccn3c2NC2CCCCC2)ccc1OC` (configuration not stated), the max response is reported as inactive: -11.6%.
In the case of `COc1ccccc1CCC(=O)Nc1ccc2c(c1)c(=O)n(C)n2-c1cccs1`, the Potency is reported as inconclusive: 3.14 µM [inhibitor, full curve].
With `CCN(CC)C(=O)CSC(Nc1cccc(F)c1)=C(C#N)C#N` the max response was inactive: -4.73%.
`COc1ccc(S(=O)(=O)Nc2ccccc2-c2nc3ccccc3[nH]c2=O)cc1` was tested, and the Potency was inconclusive: 29.1 µM [inhibitor, single point].
For `N#Cc1ccccc1NC(=O)CSc1nc(-c2ccccc2)cc(C(F)(F)F)c1C#N`, the max response was inactive: -28.7%.
`COC(=O)c1cnc(Nc2cc(C)ccc2OC)c2ccccc12` was tested, and the max response was inactive: -22%.
With `CCOC(=O)c1cc2n(c1N)-c1ccccc1C2=O` the max response was inactive: -16.6%.
With `Cc1ccccc1N1C(=O)c2cccc3c(N(C)CCO)ccc(c23)C1=O` the max response was inactive: -29.5%.
For `Oc1ccc(/C=N\Nc2nncc(-c3ccccc3)n2)cc1`, the Potency was inconclusive: 12.5 µM [inhibitor, single point].
`Cc1cc(NC(=O)N2CC=C(c3c[nH]c4ccccc34)CC2)ccc1Br` was tested, and the Potency was inconclusive: 25.9 µM [inhibitor, single point].
With `CCS(=O)(=O)N1CCc2cc(C(=O)N3CCN(c4cccc(C(F)(F)F)c4)CC3)ccc21` the max response was inactive: -12.8%.
For `Cc1ccc(NC(=O)/C=C/c2ccc([N+](=O)[O-])s2)cc1`, the Potency was active: 5.17 µM.
`Cc1ccc(C=Nc2ccccc2C(N)=O)s1` was tested, and the Potency was inconclusive: 3.14 µM [inhibitor, full curve, poor fit].
`COc1cc(C2c3cc4c(cc3OC(C)(N3CCCC3)C2C)OCO4)cc(OC)c1OC` (configuration not stated) was tested, and the Potency was inconclusive: 1.12 µM [inhibitor, full curve].
`C/C(=N/N=C(\C)c1ccccc1O)c1ccccc1O` was tested, and the Potency was inconclusive: 20.6 µM [inhibitor, single point].
For `CCCN(C(=O)CSc1n[nH]c(-c2ccc(OC)cc2)n1)c1c(N)n(Cc2ccccc2)c(=O)[nH]c1=O`, the max response was inactive: -13.7%.
With `O=C(OC12CC3CC(CC(C3)C1)C2)c1ccc(NCc2cc(O)ccc2O)cc1` the max response was inactive: -13.8%.
In the case of `CC(=O)c1cccc(NC(=O)C2CCCN(S(=O)(=O)c3cccc4nonc34)C2)c1` (configuration not stated), the max response is reported as inactive: -0.245%.
With `O=Cc1sc(Nc2ccccc2)nc1Cl` the Potency was inconclusive: 23.1 µM [inhibitor, single point].
`COc1ccc2c(c1)/C(=C\c1cccc(/C=C3/C(=O)Nc4ccc(OC)cc43)n1)C(=O)N2` was tested, and the Potency was inconclusive: 3.14 µM [inhibitor, full curve].
In the case of `CCCn1c(SCC(=O)Nc2ccccc2OC)nnc1-c1ccco1`, the Potency is reported as inconclusive: 5.59 µM [inhibitor, partial curve].
In the case of `CCN(CC)c1ccc(NC(=O)c2ccc(=O)[nH]c2)cc1S(=O)(=O)Nc1ccc(OC)cc1`, the Potency is reported as inconclusive: 17.7 µM [inhibitor, single point].
In the case of `CCOC(=O)c1[nH]c(C)c(C(=O)Nc2ccccc2C)c1C`, the Potency is reported as inconclusive: 3.96 µM [inhibitor, partial curve].
For `COCc1cc(C)nc(SCC(=O)Nc2ccc3[nH]c(=O)[nH]c3c2)c1C#N`, the max response was inactive: 0.302%.
In the case of `CC(CC(=O)Nc1ccc2c(c1)c(=O)n(C)n2-c1ccccc1F)c1ccccc1` (configuration not stated), the Potency is reported as inconclusive: 14 µM [inhibitor, partial curve].
In the case of `CCOC(=O)CN1C(=O)S/C(=C/c2ccc(N3CCCCC3)o2)C1=O`, the Potency is reported as inconclusive: 3.66 µM [inhibitor, single point].
`C[C@]1(O)CC(=O)C=C[C@H]1Nc1ccccc1` was tested, and the Potency was inconclusive: 14 µM [inhibitor, single point].
For `COc1ccccc1C(=O)N1CCN(c2cccc(Cl)c2)CC1`, the Potency was inconclusive: 1.4 µM [inhibitor, full curve].
`c1cc(SC2CCCCC2)cc(-c2nc3cnccn3c2NC2CCCCC2)c1` was tested, and the Potency was inconclusive: 29.1 µM [inhibitor, single point].
In the case of `Cn1c(=O)c(N)c2c3c(c(Br)ccc31)C(=O)c1ccccc1-2`, the max response is reported as inactive: 0.0476%.
With `CNC(=S)N/N=C(\C)c1ccc(Cl)s1` the max response was inactive: -3.1%.
`COc1cc(/C=C2/CCC/C(=C\c3cc(O)c(OC)c(Cl)c3)C2=O)cc(Cl)c1O` was tested, and the Potency was active: 8.2 µM.
With `O=C(N/N=C/c1ccc(-c2ccc([N+](=O)[O-])cc2)o1)[C@H]1C[C@@H]1c1ccccc1` the Potency was inconclusive: 29.1 µM [inhibitor, single point].
In the case of `CC(=O)Nc1ccc(-c2ccnc3c2CC(C(=O)NCc2ccccc2)O3)cc1` (configuration not stated), the Potency is reported as inconclusive: 0.396 µM [inhibitor, full curve].
